Source: the supplement of paper PMC4604168 (melanoma cell lines)
The other results are listed elsewhere or left out. Many values rest on one well or one pass, so single values are uncertain.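 The apoptosis fraction was the count of cleaved-PARP antibody-stained nuclei relative to all DNA-stained nuclei, imaged in 1,536-well plates. Screening doses were set so most cells survived, and baseline and induced cleaved-PARP levels vary greatly across cell lines.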

Legend:
Experiment in all cases: cleaved PARP positive nuclei fraction relative to DMSO control; melanoma cells; higher = more apoptosis
Details in all cases: library dose: low library concentration; 72 h
501Mel = tested on: 501Mel
A101D = tested on: A101D
A2058 = tested on: A2058
C32 = tested on: C32
CBRC008 = tested on: CBRC008 (line from a melanoma biopsy)
CBRC014 = tested on: CBRC014 (line from a melanoma biopsy)
CBRC016 = tested on: CBRC016 (line from a melanoma biopsy)
CBRC017 = tested on: CBRC017 (line from a melanoma biopsy)
COLO792 = tested on: COLO792
COLO800 = tested on: COLO800
COLO829 = tested on: COLO829
G361 = tested on: G361
IPC-298 = tested on: IPC-298
IST-MEL1 = tested on: IST-MEL1
LB2518-MEL = tested on: LB2518-MEL
LOXIMVI = tested on: LOXIMVI

Compound	cleaved PARP positive nuclei fraction (501Mel) [%]	cleaved PARP positive nuclei fraction (A101D) [%]	cleaved PARP positive nuclei fraction (A2058) [%]	cleaved PARP positive nuclei fraction (C32) [%]	cleaved PARP positive nuclei fraction (CBRC008) [%]	cleaved PARP positive nuclei fraction (CBRC014) [%]	cleaved PARP positive nuclei fraction (CBRC016) [%]	cleaved PARP positive nuclei fraction (CBRC017) [%]	cleaved PARP positive nuclei fraction (COLO792) [%]	cleaved PARP positive nuclei fraction (COLO800) [%]	cleaved PARP positive nuclei fraction (COLO829) [%]	cleaved PARP positive nuclei fraction (G361) [%]	cleaved PARP positive nuclei fraction (IPC-298) [%]	cleaved PARP positive nuclei fraction (IST-MEL1) [%]	cleaved PARP positive nuclei fraction (LB2518-MEL) [%]	cleaved PARP positive nuclei fraction (LOXIMVI) [%]
CO[C@H]1C[C@@H]2CC[C@@H](C)[C@@](O)(O2)C(=O)C(=O)N2CCCC[C@H]2C(=O)O[C@H]([C@H](C)C[C@@H]2CC[C@@H](OCCO)[C@H](OC)C2)CC(=O)[C@H](C)/C=C(\C)[C@@H](O)[C@@H](OC)C(=O)[C@H](C)C[C@H](C)/C=C/C=C/C=C/1C [everolimus] + COc1ccc(-c2ccc3c(N4CCOCC4)nc(N4C[C@@H](C)O[C@@H](C)C4)nc3n2)cc1CO [KU0063794] (first compound 0.02 µM, partner dose 0.02 µM)	249	32.6	93.8	91.6	499	116	63	131	124	72.6	88.1	184	120	139	85.1	41
C[C@@H](Oc1cc(-c2cnn(C3CCNCC3)c2)cnc1N)c1c(Cl)ccc(F)c1Cl [Crizotinib] + COC(=O)c1sccc1S(=O)(=O)Nc1ccc(Nc2ccccc2)cc1OC [GSK0660] (first compound 0.2 µM, partner dose 1 µM)	227	26.5	65.3	82	93.7	191	78.6	209	115	96.2	107	104	61.5	39.2	35.1	112
C=C(c1ccc(C(=O)O)cc1)c1cc2c(cc1C)C(C)(C)CCC2(C)C [Bexarotene] + COc1ccc2c(c1)CCC1C2CCC2(C)C(NCCCCCCN3C(=O)C=CC3=O)CCC12 [U73122] (first compound 2 µM, partner dose 0.4 µM)	71	26.8	151	167	172	142	97.9	223	146	105	136	89.7	351	188	139	76.1
CS(=O)(=O)CCNCc1ccc(-c2ccc3ncnc(Nc4ccc(OCc5cccc(F)c5)c(Cl)c4)c3c2)o1 [lapatinib] + O=C(O)C(=O)Nc1sc2c(c1C(=O)O)CCNC2 [TCS401] (first compound 0.8 µM, partner dose 1.66667 µM)	89.1	21.9	67.7	112	226	97	75.1	105	117	36.3	88.8	42.2	69.8	43.2	43	25.1
CC(C)C[C@H](NC(=O)[C@H](Cc1ccccc1)NC(=O)c1cnccn1)B(O)O [Bortezomib] + CCCCCCCCCCCC1=C(O)C(=O)C=C(O)C1=O [Embelin] (first compound 0.001 µM, partner dose 1.2 µM)	155	29.1	143	147	97.3	90.4	50	148	72.5	76.6	82.7	98.6	88.4	48.1	73.4	59.5
Cn1c(=O)n(-c2ccc(C(C)(C)C#N)cc2)c2c3cc(-c4cnc5ccccc5c4)ccc3ncc21 + O=C(Nc1ccccc1)c1cc([N+](=O)[O-])ccc1Cl [GW9662] (first compound 0.004 µM, partner dose 2 µM)	121	28.6	99.1	20.9	122	102	98.2	101	109	97.6	55.4	113	153	41.8	64.1	42.8
CCCS(=O)(=O)Nc1ccc(F)c(C(=O)c2c[nH]c3ncc(Cl)cc23)c1F + CC(C)CCN1c2nc(Nc3cc(F)c(O)c(F)c3)ncc2N(C)C(=O)C1C [BID1870] (first compound 0.08 µM, partner dose 0.2 µM)	65.8	73.4	70.6	120	41.8	237	63.4	101	67	23.2	130	196	102	122	41.1	29.9
Nc1ccn([C@@H]2O[C@H](CO)[C@@H](O)C2(F)F)c(=O)n1 [gemcitabine] + N#Cc1c(O)c2c(-c3ccc(-c4ccccc4O)cc3)csc2[nH]c1=O [A769662] (first compound 0.0004 µM, partner dose 2 µM)	63.4	5.64	166	49	233	258	170	293	88.1	39.8	65.3	127	134	101	71	58.7
CO[C@H]1C[C@@H]2CC[C@@H](C)[C@@](O)(O2)C(=O)C(=O)N2CCCC[C@H]2C(=O)O[C@H]([C@H](C)C[C@@H]2CC[C@@H](OCCO)[C@H](OC)C2)CC(=O)[C@H](C)/C=C(\C)[C@@H](O)[C@@H](OC)C(=O)[C@H](C)C[C@H](C)/C=C/C=C/C=C/1C [everolimus] + O=C(Nc1ccccc1)c1cc([N+](=O)[O-])ccc1Cl [GW9662] (first compound 0.02 µM, partner dose 2 µM)	98.5	28.1	327	181	81.1	102	71.6	88.5	223	62.4	114	150	170	122	64.9	55.3
O=C(O)c1ccc2c(c1)nc(Nc1cccc(Cl)c1)c1ccncc12 + COc1ccc(COc2ccc(Cc3cnc(N)nc3N)cc2OC)cc1 [GW2580] (first compound 0.4 µM, partner dose 1 µM)	140	34.4	149	83	122	180	175	200	162	77.2	98.5	105	81.3	64	94.2	323
CO[C@H]1C[C@@H]2CC[C@@H](C)[C@@](O)(O2)C(=O)C(=O)N2CCCC[C@H]2C(=O)O[C@H]([C@H](C)C[C@@H]2CC[C@@H](OCCO)[C@H](OC)C2)CC(=O)[C@H](C)/C=C(\C)[C@@H](O)[C@@H](OC)C(=O)[C@H](C)C[C@H](C)/C=C/C=C/C=C/1C [everolimus] + O=C(O)C(=O)Nc1sc2c(c1C(=O)O)CCNC2 [TCS401] (first compound 0.02 µM, partner dose 1.66667 µM)	183	22.9	246	171	110	80.2	78.8	139	122	224	232	115	96.3	99.1	59.7	150
Nc1ccn([C@@H]2O[C@H](CO)[C@@H](O)C2(F)F)c(=O)n1 [gemcitabine] + COc1cc2ncnc(Nc3ccc(Oc4ccccc4)cc3)c2cc1OC [SrcI1] (first compound 0.0004 µM, partner dose 2 µM)	38.2	11.9	76.2	65.7	183	123	162	113	144	180	70.9	93.2	100	316	62.8	188
CC(C)C[C@H](NC(=O)[C@H](Cc1ccccc1)NC(=O)c1cnccn1)B(O)O [Bortezomib] + COc1ccc2c(c1)CCC1C2CCC2(C)C(NCCCCCCN3C(=O)C=CC3=O)CCC12 [U73122] (first compound 0.001 µM, partner dose 0.4 µM)	203	155	184	90.2	863	306	511	806	117	65.5	122	1980	67.7	130	811	41.2
CC(C)C[C@H](NC(=O)[C@H](Cc1ccccc1)NC(=O)c1cnccn1)B(O)O [Bortezomib] + O=C(Nc1ccccc1)c1cc([N+](=O)[O-])ccc1Cl [GW9662] (first compound 0.001 µM, partner dose 2 µM)	505	143	230	144	523	151	151	124	73.8	82.3	156	1120	236	52	146	111
CC(C)C[C@H](NC(=O)[C@H](Cc1ccccc1)NC(=O)c1cnccn1)B(O)O [Bortezomib] + Cc1cc([N+](=O)[O-])ccc1NS(=O)(=O)c1cc(Cl)ccc1Cl [FH535] (first compound 0.001 µM, partner dose 1 µM)	271	131	34.8	104	1140	167	1560	416	54.7	86.9	165	1690	135	115	154	143
O=C(O)c1ccc2c(c1)nc(Nc1cccc(Cl)c1)c1ccncc12 + COc1cc(N2CCC(N3CCN(C)CC3)CC2)ccc1Nc1ncc(Cl)c(Nc2ccccc2S(=O)(=O)C(C)C)n1 [NVP-TAE684] (first compound 0.4 µM, partner dose 0.08 µM)	63.4	13	244	109	133	113	3400	159	82.3	119	186	105	47.9	54.9	52.4	61
C[C@@H](Oc1cc(-c2cnn(C3CCNCC3)c2)cnc1N)c1c(Cl)ccc(F)c1Cl [Crizotinib] + COc1ccc2c(c1)CCC1C2CCC2(C)C(NCCCCCCN3C(=O)C=CC3=O)CCC12 [U73122] (first compound 0.2 µM, partner dose 0.4 µM)	56.8	39	129	151	109	1050	116	81.1	141	38	49.8	75.8	63.3	112	73.2	30
CS(=O)(=O)CCNCc1ccc(-c2ccc3ncnc(Nc4ccc(OCc5cccc(F)c5)c(Cl)c4)c3c2)o1 [lapatinib] + Cn1cc(/C=C2\C(=O)Nc3cccnc32)c2ccccc21 [GW441756] (first compound 0.8 µM, partner dose 0.4 µM)	71.2	13.1	74.8	62.9	409	192	34.7	95.7	77.2	105	34	88.3	92.8	181	64.9	80.3

Whole records from above. Values in the order: cleaved PARP positive nuclei fraction (501Mel) [%] | cleaved PARP positive nuclei fraction (A101D) [%] | cleaved PARP positive nuclei fraction (A2058) [%] | cleaved PARP positive nuclei fraction (C32) [%] | cleaved PARP positive nuclei fraction (CBRC008) [%] | cleaved PARP positive nuclei fraction (CBRC014) [%] | cleaved PARP positive nuclei fraction (CBRC016) [%] | cleaved PARP positive nuclei fraction (CBRC017) [%] | cleaved PARP positive nuclei fraction (COLO792) [%] | cleaved PARP positive nuclei fraction (COLO800) [%] | cleaved PARP positive nuclei fraction (COLO829) [%] | cleaved PARP positive nuclei fraction (G361) [%] | cleaved PARP positive nuclei fraction (IPC-298) [%] | cleaved PARP positive nuclei fraction (IST-MEL1) [%] | cleaved PARP positive nuclei fraction (LB2518-MEL) [%] | cleaved PARP positive nuclei fraction (LOXIMVI) [%]
O=C(O)c1ccc2c(c1)nc(Nc1cccc(Cl)c1)c1ccncc12 + COc1cc(N2CCC(N3CCN(C)CC3)CC2)ccc1Nc1ncc(Cl)c(Nc2ccccc2S(=O)(=O)C(C)C)n1 [NVP-TAE684] (first compound 0.4 µM, partner dose 0.08 µM) in the list: 63.4 | 13 | 244 | 109 | 133 | 113 | 3400 | 159 | 82.3 | 119 | 186 | 105 | 47.9 | 54.9 | 52.4 | 61
CO[C@H]1C[C@@H]2CC[C@@H](C)[C@@](O)(O2)C(=O)C(=O)N2CCCC[C@H]2C(=O)O[C@H]([C@H](C)C[C@@H]2CC[C@@H](OCCO)[C@H](OC)C2)CC(=O)[C@H](C)/C=C(\C)[C@@H](O)[C@@H](OC)C(=O)[C@H](C)C[C@H](C)/C=C/C=C/C=C/1C [everolimus] + O=C(Nc1ccccc1)c1cc([N+](=O)[O-])ccc1Cl [GW9662] (first compound 0.02 µM, partner dose 2 µM) in the list: 98.5 | 28.1 | 327 | 181 | 81.1 | 102 | 71.6 | 88.5 | 223 | 62.4 | 114 | 150 | 170 | 122 | 64.9 | 55.3
